Measurements published in PubChem BioAssay AID2551 (National Center for Advancing Translational Sciences (NCATS), 2010).
About 17,000 (5.5%) of roughly 310,000 compounds were called active. The inconclusive results got no clear call from the source; some entries with a clear call stand among them for comparison. Calls come from the whole dose curve; as a rule, active = well fitted inhibition curve with a large enough effect; inconclusive = small, poorly fitted or top-dose-only effect, or effect the other way; inactive = no such curve, though single readings can be large or run the other way. Where the call is inconclusive, the potency comes from a doubtful curve fit.

Chains of the proteins cited; added tags and fusions are not shown. Lines headed by an entry give the natural chain unless they say otherwise; changes in a name come on top.
UniProt P51450: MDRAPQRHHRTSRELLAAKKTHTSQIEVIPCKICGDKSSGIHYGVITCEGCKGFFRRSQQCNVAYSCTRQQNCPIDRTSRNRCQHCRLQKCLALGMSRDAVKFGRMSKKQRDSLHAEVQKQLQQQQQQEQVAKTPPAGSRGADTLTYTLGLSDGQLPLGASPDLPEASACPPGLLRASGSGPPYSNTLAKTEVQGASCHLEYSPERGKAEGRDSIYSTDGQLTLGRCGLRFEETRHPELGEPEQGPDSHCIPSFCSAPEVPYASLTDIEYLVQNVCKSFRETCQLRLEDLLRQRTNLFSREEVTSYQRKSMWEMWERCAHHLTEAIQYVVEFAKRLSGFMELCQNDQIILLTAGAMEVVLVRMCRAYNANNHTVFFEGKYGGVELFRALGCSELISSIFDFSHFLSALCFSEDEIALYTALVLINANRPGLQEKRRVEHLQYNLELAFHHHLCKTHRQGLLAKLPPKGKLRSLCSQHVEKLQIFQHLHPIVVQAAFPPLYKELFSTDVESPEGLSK

Each compound was assayed against Nuclear receptor ROR-gamma (Mus musculus) (UniProt P51450) (assay: qHTS for inhibitors of ROR gamma transcriptional activity). Conditions: Drosophila S2 Gal4-RORgamma UAS-luciferase reporter, 20 h; activity change, negative = inhibition: at 53.6 µM (top of the series).
Summary of the method: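 Drosophila S2 cells stably expressing Gal4-DBD/mouse RORγ fusion under metallothionein promoter plus UAS-luciferase; compound 1 h, then 700 uM CuSO4 induction for 20 h at ambient temperature; inhibition read as reduced luminescence.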
% is set by controls: 0 for no effect and ±100 for the full control effect; potency is the fitted concentration of half-maximal effect.
Note: nearly all actives have a fitted effect of over 60% in size.

Structure (SMILES) | Potency | activity change, negative = inhibition
CCOCCOC(=O)C(C)Oc1ccc(Oc2ncc(C(F)(F)F)cc2Cl)cc1 (configuration not stated) | inconclusive: 35.5 µM [activator, single point] | –
Cc1nn(-c2ccccc2)c(/N=C/c2ccccc2O)c1-c1ccccc1 | – | inactive: 16.9% [at 10 µM]
CCOc1ccc(Nc2cc(=O)oc3ccccc23)cc1 | inconclusive: 22.4 µM [activator, single point] | –
COc1ccc(-c2nc(-c3cccc([N+](=O)[O-])c3O)cc(=O)o2)cc1OC | inconclusive: 35.5 µM [activator, single point] | –
CN(C)c1ccc(C(=N)c2ccc(N(C)C)cc2)cc1 | – | inactive: -16.1%
c1ccc2c(Nc3ccncc3)nc(-c3ccc4c(c3)OCO4)nc2c1 | inconclusive: 31.6 µM [inhibitor, single point] | –
O=C(N[C@@H](Cc1ccccc1)C(=O)NCCc1c[nH]c2ccccc12)c1ccco1 | – | inactive: -3.51%
Cc1ccc(-n2c(N)c(C(=O)Nc3c(C)n(C)n(-c4ccccc4)c3=O)c3nc4ccccc4nc32)cc1C | inconclusive: 15.8 µM [activator, single point] | –
N=C1SC(c2ccccc2)C(=O)N1c1ncc(Cc2ccccc2)s1 (configuration not stated) | active: 7.08 µM | –
CCN(CC)C(=O)c1cn(-c2ccccc2)nc1-c1ccc2c(c1)OCCO2 | inconclusive: 35.5 µM [inhibitor, single point] | –
O=C(CSc1nnc2sc3ccccc3n12)NCc1ccco1 | – | inactive: 8.63%
FC(F)c1nnc2ccc(Cl)nn12 | inconclusive: 6.31 µM [inhibitor, single point] | –
CC(=O)N1CCN(c2ccc(NC(=O)C(c3ccccc3)c3ccccc3)cc2)CC1 | – | inactive: 3.72%
O=C(NC(=S)Nc1ccc(N2CCOCC2)cc1)c1cccc(Cl)c1Cl | active: 3.16 µM | –
CCN(CC)c1ccc(/C=C(\C#N)C(=O)c2ccc(Br)cc2)cc1 | inconclusive: 10 µM [activator, partial curve] | –
CCOC(=O)c1cc2occc2n1CC(=O)NC1CCCCC1C (configuration not stated) | inconclusive: 35.5 µM [inhibitor, single point] | –
COCCNC(=O)c1ccc(CSc2nc3ccccc3s2)cc1 | inconclusive: 10 µM [activator, partial curve] | –
O=C1c2cccc3cccc(c23)C(=O)N1CCCCCc1n[nH]c(=S)o1 | inconclusive: 8.91 µM [inhibitor, partial curve] | –
Cc1noc(C)c1S(=O)(=O)N(CC(=O)N1CCn2c1nc1ccccc12)c1ccc(C(C)C)cc1 | inconclusive: 35.5 µM [activator, single point] | –
Cc1[nH]n(-c2cccc3ccccc23)c(=O)c1/C=N/NC(=O)c1cccc([N+](=O)[O-])c1 | active: 2.82 µM | –
Oc1cc2ccccc2cc1-c1n[nH]c(=S)n1Cc1ccco1 | active: 12.6 µM | –
CC12CCC(C(=O)N3CCc4ccccc43)(CC1=O)C2(C)C (configuration not stated) | inconclusive: 5.01 µM [inhibitor, single point] | –
Cc1ccc(-c2cc(C(=O)O)c3ccccc3n2)s1 | inconclusive: 35.5 µM [inhibitor, single point] | –
CC(C)Cn1c(N)c(C(=O)CSc2ccccc2)c(=O)n(C)c1=O | inconclusive: 15.8 µM [activator, partial curve] | –

Three entries picked at random from the list so far, as already listed:
Structure (SMILES) | Potency | activity change, negative = inhibition
CN(C)c1ccc(C(=N)c2ccc(N(C)C)cc2)cc1 | – | inactive: -16.1%
FC(F)c1nnc2ccc(Cl)nn12 | inconclusive: 6.31 µM [inhibitor, single point] | –
Oc1cc2ccccc2cc1-c1n[nH]c(=S)n1Cc1ccco1 | active: 12.6 µM | –

The listing continues:

Structure (SMILES) | Potency | activity change, negative = inhibition
CCC12CN3CCN(CC(C3)/C1=N\NC(=O)c1ccc(Cl)cc1)C2 | – | inactive: -4.35%
COCc1cc(=O)[nH]c(SCC(=O)c2ccccc2)n1 | – | inactive: -0.432%
OC(CNCCc1ccc(C(F)(F)F)cc1)COc1cccc2ccccc12 (configuration not stated) | inconclusive: 22.4 µM [inhibitor, single point] | –
C=CCn1c(SCC(=O)c2c(N)n(CCC)c(=O)n(C)c2=O)nc2sc(CC)cc2c1=O | – | inactive: 11.5%
COc1ccc2c(c1)CC/C(=C\Nc1ccc3c(c1)OCO3)C2=O | inconclusive: 3.16 µM [activator, single point] | –
COc1ccccc1NS(=O)(=O)c1ccc2c(c1)NC(=O)C(C)S2 (configuration not stated) | inconclusive: 35.5 µM [inhibitor, single point] | –
CCCN(CC(=O)Nc1cc(Cl)ccc1Cl)C(=O)/C=C/c1ccco1 | inconclusive: 35.5 µM [inhibitor, single point] | –
CN(CC(=O)Nc1ccc(Cl)cc1)CC(=O)Nc1ccc(C(N)=O)cc1 | inconclusive: 6.31 µM [inhibitor, single point] | –
O=S(=O)(NC1c2cccc3cccc(c23)C1N1CCNCC1)c1ccc(Cl)cc1 (configuration not stated) | inconclusive: 11.2 µM [inhibitor, single point] | –
O=C1CCCN2N=C(SCC(=O)Nc3cccc(Cl)c3)SC2=N1 | inconclusive: 10 µM [activator, partial curve, poor fit] | –
CCN(CC)CCN(Cc1cc2cccc(C)c2[nH]c1=O)C(=S)Nc1ccccc1 | – | inactive: -19.4%
COc1ccc(NC(=S)NNc2ccc([N+](=O)[O-])cc2S(=O)(=O)Nc2ccc(C)cc2C)cc1 | inconclusive: 14.1 µM [activator, single point] | –
CC(C)C(=O)Nc1ccc(S(=O)(=O)Nc2ccccn2)cc1 | inconclusive: 31.6 µM [inhibitor, single point] | –
CC(NC(=O)CCC1COc2ccccc2O1)c1ccccc1 (configuration not stated) | inconclusive: 17.8 µM [activator, single point] | –
CC(C)(C)c1ccc(-c2n[nH]c(=S)n2C2CCCC2)cc1 | active: 2.51 µM | –
O=C(O)c1ccccc1N/N=C\c1ccnc2ccccc12 | active: 5.01 µM | –
CCOc1ccc(/C=C2/SC(=S)N(n3c(C)ccc3C)C2=O)cc1 | inconclusive: 12.6 µM [activator, single point] | –
Cc1cccc2sc(NC(=O)CCNS(=O)(=O)c3cccs3)nc12 | inconclusive: 17.8 µM [activator, single point] | –
N#CC1=C(N)C(C#N)(C#N)C(c2cccnc2)C2CN(C(=O)OCc3ccccc3)CC=C12 (configuration not stated) | inconclusive: 0.0045 µM [activator, full curve, poor fit] | –
CCCC(=O)Nc1nnc(SCC)s1 | inconclusive: 0.316 µM [activator, full curve, poor fit] | –
CC(=O)Nc1ccc(S(=O)(=O)N2CCN(Cc3cccc([N+](=O)[O-])c3)CC2)cc1 | – | inactive: 9.22%
Cc1cc(C)n(-c2nc(Nc3ccccc3C)nc(-n3nc(C)cc3C)n2)n1 | active: 2.82 µM | –
N#Cc1c(NC(=O)CN2CCN(C(=O)c3ccco3)CC2)sc2c1CCCCC2 | – | inactive: 6.92%
COc1cccc(C2=NN(C(=O)c3ccco3)C(O)(C(F)(F)F)C2)c1 (configuration not stated) | active: 5.62 µM | –

Structure (SMILES) | Potency | activity change, negative = inhibition
Cc1c2cnn(CC(=O)NCCCN3CCCCC3)c(=O)c2c(C)n1Cc1ccccc1 | – | inactive: -10%
Cc1ccc(C)c(NC(=S)Nc2ccc(S(=O)(=O)Nc3ncccn3)cc2)c1 | inconclusive: 35.5 µM [inhibitor, single point] | –
CCn1c(-c2cc(-c3cccc(OC)c3)nc3ccccc23)n[nH]c1=S | active: 5.01 µM | –
CCn1ccnc1CN(C)Cc1cn(C)nc1-c1ccccc1F | inconclusive: 15.8 µM [inhibitor, partial curve] | –
COc1ccc(OC)c(S(=O)(=O)NNC(=S)Nc2ccc3c(c2)OCO3)c1 | active: 10 µM | –
Cc1ccc(C)c2c1[nH]c1ccc([N+](=O)[O-])cc12 | inconclusive: 35.5 µM [inhibitor, single point] | –
COc1ccc(CCNC(=S)Nc2cccc(C)c2)cc1 | active: 7.08 µM | –
CC(=O)c1ccc(NC(=O)CSc2nnc(-c3ccco3)o2)cc1 | – | inactive: 30.9%
O=C(NC(=S)Nc1ccccc1Cl)C1CC1 | inconclusive: 0.251 µM [inhibitor, full curve, poor fit] | –
COc1ccccc1CNC(=O)Cn1cccc1C(=O)c1ccccc1C | – | inactive: 38.1%
CCN(CC)CCC(c1ccc(N(C)C)cc1)c1c(OC)cc(OC)c2c1OC(=O)CC2c1ccc(N(C)C)cc1 (configuration not stated) | – | inactive: 28.4%
O=C(Nc1cccc(-c2cccc(Cl)c2)c1)C1CCN(Cc2ccon2)CC1 | inconclusive: 35.5 µM [inhibitor, single point] | –
O=C(Nc1nccs1)c1ccc(CSc2ccccc2)o1 | inconclusive: 25.1 µM [inhibitor, single point] | –
NC(=O)c1ccc(NC(=O)COC(=O)/C=C/c2cn(-c3ccccc3)nc2-c2cccnc2)cc1 | – | inactive: -2.53%
Cc1cc(=O)[nH]c2ccc(S(=O)(=O)Nc3ccc(O)cc3)cc12 | inconclusive: 0.178 µM [inhibitor, single point] | –
O=C(Nc1ncc2c(n1)CC(c1ccc(Cl)cc1)CC2=O)c1ccco1 (configuration not stated) | – | inactive: 15.6%
Cc1cc(Cl)ccc1OCC(=O)NCCOc1nc(N2CCCCC2)nc(N2CCOCC2)n1 | – | inactive: 8.87%
Cn1c(=O)n(CC(=O)O)c(=O)c2c1nc1n2CCCN1CCc1ccccc1 | inconclusive: 35.5 µM [inhibitor, single point] | –
Cc1cccc(N2CCN(C(c3ccncc3)c3nnnn3C(C)(C)C)CC2)c1C (configuration not stated) | – | inactive: 0.0119%
Cc1cccc(-c2n[nH]c(=S)n2Cc2ccccc2)c1 | active: 0.794 µM | –
Cc1ccc(C(=O)NNS(=O)(=O)c2ccccc2[N+](=O)[O-])cc1 | inconclusive: 4.47 µM [activator, single point] | –
Cc1nn(-c2ccccc2)c2c1C(c1ccccc1)C(C#N)=C(N)O2 (configuration not stated) | inconclusive: 14.1 µM [activator, single point] | –
CCOc1cc(CNCCCN2CCOCC2)cc(Br)c1OCc1ccccc1Cl | inconclusive: 12.6 µM [inhibitor, single point] | –
CC(=O)Oc1ccc(OC(C)=O)c(SCCCCCN2CCOCC2)c1 | inconclusive: 25.1 µM [inhibitor, single point] | –
